The other results are listed elsewhere or left out. Single values are uncertain, as repeats are few or missing.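 Imaging used 1,536-well plates; nuclei positive for cleaved PARP by antibody were divided by total DNA-stained nuclei to yield the apoptosis fraction. Doses for screening kept most cells viable, and cell lines differ markedly in resting and induced cleaved-PARP levels.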
Experiments:
Assay in all cases: cleaved PARP positive nuclei fraction relative to DMSO control; melanoma cells; higher = more apoptosis
Settings in all cases: library dose: low library concentration; 72 h
[1] = test system: MZ2-MEL
[2] = test system: MeWo
[3] = test system: RPMI7951
[4] = test system: RVH-421
[5] = test system: SkMel28
[6] = test system: SkMel30
[7] = test system: SkMel5
[8] = test system: UACC257
[9] = test system: UACC62
[10] = test system: WM115
[11] = test system: WM1716
[12] = test system: WM1745
[13] = test system: WM3526
[14] = test system: WM3619
[15] = test system: WM451Lu

| Structure (SMILES) | cleaved PARP positive nuclei fraction [1] [%] | cleaved PARP positive nuclei fraction [2] [%] | cleaved PARP positive nuclei fraction [3] [%] | cleaved PARP positive nuclei fraction [4] [%] | cleaved PARP positive nuclei fraction [5] [%] | cleaved PARP positive nuclei fraction [6] [%] | cleaved PARP positive nuclei fraction [7] [%] | cleaved PARP positive nuclei fraction [8] [%] | cleaved PARP positive nuclei fraction [9] [%] | cleaved PARP positive nuclei fraction [10] [%] | cleaved PARP positive nuclei fraction [11] [%] | cleaved PARP positive nuclei fraction [12] [%] | cleaved PARP positive nuclei fraction [13] [%] | cleaved PARP positive nuclei fraction [14] [%] | cleaved PARP positive nuclei fraction [15] [%] |
| --- | --- | --- | --- | --- | --- | --- | --- | --- | --- | --- | --- | --- | --- | --- | --- |
| COc1ccc2c(c1)CCC1C2CCC2(C)C(NCCCCCCN3C(=O)C=CC3=O)CCC12 (stereo not given) + O=C1NC(=O)/C(=C/c2ccc(-c3ccc(F)cc3O)o2)S1 [AS252424] (first compound 0.4 µM, partner dose 1 µM) | 31.1 | 50.8 | 54.7 | 56.7 | 86.8 | 164 | 25.5 | 99.3 | 46.3 | 54.2 | 121 | 125 | 109 | 376 | 84.4 |
| COc1ccc(-c2ccc3c(N4CCOCC4)nc(N4C[C@@H](C)O[C@@H](C)C4)nc3n2)cc1CO + CCN(CC)CCCCNc1ncc2cc(-c3cc(OC)cc(OC)c3)c(NC(=O)NC(C)(C)C)nc2n1 [PD173074] (first compound 0.02 µM, partner dose 0.1 µM) | 72.1 | 108 | 88.8 | 112 | 121 | 73.8 | 80.9 | 109 | 173 | 47.3 | 53.7 | 104 | 77.5 | 105 | 116 |
| COc1ccc2c(c1)CCC1C2CCC2(C)C(NCCCCCCN3C(=O)C=CC3=O)CCC12 (stereo not given) + Oc1cc(-c2nc(-c3ccccc3)[nH]c2-c2ccncc2)ccc1Cl [L779450] (first compound 0.4 µM, partner dose 0.2 µM) | 121 | 57 | 309 | 93.2 | 172 | 49.1 | 26.1 | 42.1 | 136 | 155 | 57.1 | 296 | 80 | 117 | 56.1 |
| COC(=O)c1sccc1S(=O)(=O)Nc1ccc(Nc2ccccc2)cc1OC + O=S(=O)(c1ccccc1)N(CC(F)(F)F)c1ccc(C(O)(C(F)(F)F)C(F)(F)F)cc1 [T0901317] (first compound 1 µM, partner dose 1.4 µM) | 67.9 | 48.5 | 40.9 | 66.6 | 204 | 32.4 | 20.9 | 128 | 132 | 99.6 | 44.3 | 127 | 73.4 | 74 | 127 |
| CN(C)S(=O)(=O)c1ccc2c(c1)/C(=C/c1cc3c([nH]1)CCCC3)C(=O)N2 + CCc1ccc(CCOc2ccc(CC3SC(=O)NC3=O)cc2)nc1 [pioglitazone] (first compound 0.4 µM, partner dose 2 µM) | 143 | 78.8 | 89.4 | 226 | 118 | 40.5 | 56.4 | 37.4 | 120 | 281 | 55.5 | 122 | 136 | 298 | 121 |
| COc1cc2c(Oc3ccc4[nH]c(C)cc4c3F)ncnc2cc1OCCCN1CCCC1 [cediranib] + N#Cc1c(O)c2c(-c3ccc(-c4ccccc4O)cc3)csc2[nH]c1=O [A769662] (first compound 0.4 µM, partner dose 2 µM) | 41 | 95.5 | 121 | 93.2 | 121 | 128 | 54.9 | 187 | 39.2 | 97.3 | 65.1 | 94.9 | 70.9 | 76.9 | 85 |
| COc1ccc(COc2ccc(Cc3cnc(N)nc3N)cc2OC)cc1 + O=S(=O)(c1ccccc1)N(CC(F)(F)F)c1ccc(C(O)(C(F)(F)F)C(F)(F)F)cc1 [T0901317] (first compound 1 µM, partner dose 1.4 µM) | 103 | 56.5 | 74.4 | 87.1 | 144 | 58.7 | 61.3 | 82.4 | 106 | 61.2 | 54.1 | 111 | 172 | 88.6 | 69.3 |
| CN(C)S(=O)(=O)c1ccc2c(c1)/C(=C/c1cc3c([nH]1)CCCC3)C(=O)N2 + O=C(Nc1ccccc1)c1cc([N+](=O)[O-])ccc1Cl [GW9662] (first compound 0.4 µM, partner dose 2 µM) | 154 | 169 | 86.9 | 82.6 | 123 | 130 | 137 | 108 | 46.9 | 193 | 57.3 | 112 | 61.9 | 92.3 | 41.8 |
| COc1ccc(-c2ccc3c(N4CCOCC4)nc(N4C[C@@H](C)O[C@@H](C)C4)nc3n2)cc1CO + O=C1NC(=O)/C(=C/c2ccc(-c3ccc(F)cc3O)o2)S1 [AS252424] (first compound 0.02 µM, partner dose 1 µM) | 172 | 28.7 | 46.1 | 79.9 | 164 | 17.1 | 118 | 266 | 147 | 152 | 62.1 | 113 | 301 | 91.2 | 53.3 |
| CCN(CC)CCCCNc1ncc2cc(-c3cc(OC)cc(OC)c3)c(NC(=O)NC(C)(C)C)nc2n1 + CC(C)CCN1c2nc(Nc3cc(F)c(O)c(F)c3)ncc2N(C)C(=O)C1C [BID1870] (first compound 0.1 µM, partner dose 0.2 µM) | 118 | 35.6 | 38.3 | 12.8 | 76.8 | 413 | 55.5 | 135 | 36.4 | 76.5 | 76.5 | 112 | 36.9 | 71.7 | 84.5 |
| COc1ccc(COc2ccc(Cc3cnc(N)nc3N)cc2OC)cc1 + CCCCCCCCCCCC1=C(O)C(=O)C=C(O)C1=O [Embelin] (first compound 1 µM, partner dose 1.2 µM) | 87.5 | 47.7 | 82.8 | 57.2 | 109 | 10.3 | 124 | 78.7 | 54.7 | 49.8 | 57.3 | 87 | 66.5 | 211 | 29.8 |
| CCc1ccc(CCOc2ccc(CC3SC(=O)NC3=O)cc2)nc1 (stereo not given) [pioglitazone] + COc1ccc(-c2ccc3c(N4CCOCC4)nc(N4C[C@@H](C)O[C@@H](C)C4)nc3n2)cc1CO [KU0063794] (first compound 2 µM, partner dose 0.02 µM) | 124 | 56.2 | 173 | 70.4 | 65.4 | 97.4 | 63 | 29.7 | 78.9 | 86.6 | 28.6 | 108 | 58.1 | 59.1 | 118 |
| O=C(O)c1ccc(-c2c[nH]c3ncc(-c4ccccc4)cc23)cc1C1CCCC1 + COc1ccc2c(c1)CCC1C2CCC2(C)C(NCCCCCCN3C(=O)C=CC3=O)CCC12 [U73122] (first compound 0.16 µM, partner dose 0.4 µM) | 81.9 | 106 | 93.2 | 107 | 87.5 | 19.4 | 66.1 | 37.5 | 51.1 | 138 | 72.3 | 112 | 137 | 85.9 | 66.5 |
| O=C(Nc1ccccc1)c1cc([N+](=O)[O-])ccc1Cl + c1cc(-c2cnn3cc(-c4ccc(OCCN5CCCCC5)cc4)cnc23)ccn1 [Dorsomorphin] (first compound 2 µM, partner dose 0.4 µM) | 149 | 60.4 | 187 | 41.4 | 108 | 24.5 | 94 | 80.4 | 43.4 | 104 | 137 | 128 | 53.4 | 109 | 56.4 |
| COc1ccc(COc2ccc(Cc3cnc(N)nc3N)cc2OC)cc1 + O=c1cc(-c2cccc3c2Sc2ccccc2S3)oc(N2CCOCC2)c1 [KU55933] (first compound 1 µM, partner dose 1 µM) | 53.2 | 211 | 160 | 75.9 | 172 | 17.6 | 27.7 | 69.8 | 37.9 | 103 | 62.1 | 114 | 75.7 | 75.4 | 61.1 |
| O=C(O)c1ccc(-c2c[nH]c3ncc(-c4ccccc4)cc23)cc1C1CCCC1 + c1cc(-c2cnn3cc(-c4ccc(OCCN5CCCCC5)cc4)cnc23)ccn1 [Dorsomorphin] (first compound 0.16 µM, partner dose 0.4 µM) | 90.7 | 30.4 | 82.8 | 58.7 | 81.9 | 49.6 | 60.6 | 124 | 37.3 | 131 | 80.5 | 102 | 143 | 64.5 | 40.1 |
| O=C(Nc1ccccc1)c1cc([N+](=O)[O-])ccc1Cl + COc1ccc2c(c1)CCC1C2CCC2(C)C(NCCCCCCN3C(=O)C=CC3=O)CCC12 [U73122] (first compound 2 µM, partner dose 0.4 µM) | 310 | 55.2 | 87.4 | 23.2 | 105 | 25.3 | 100 | 66.5 | 176 | 137 | 90.1 | 110 | 62.9 | 89.6 | 141 |
| O=S(=O)(c1ccccc1)N(CC(F)(F)F)c1ccc(C(O)(C(F)(F)F)C(F)(F)F)cc1 + COc1cc(N2CCC(N3CCN(C)CC3)CC2)ccc1Nc1ncc(Cl)c(Nc2ccccc2S(=O)(=O)C(C)C)n1 [NVP-TAE684] (first compound 1.4 µM, partner dose 0.08 µM) | 86.6 | 55.9 | 77.3 | 65.3 | 48.8 | 157 | 239 | 79 | 45.3 | 287 | 126 | 122 | 86.2 | 816 | 127 |
| CN(C)S(=O)(=O)c1ccc2c(c1)/C(=C/c1cc3c([nH]1)CCCC3)C(=O)N2 + COC(=O)c1sccc1S(=O)(=O)Nc1ccc(Nc2ccccc2)cc1OC [GSK0660] (first compound 0.4 µM, partner dose 1 µM) | 137 | 58.5 | 86.7 | 66.9 | 131 | 61.2 | 62.5 | 43.5 | 84.1 | 265 | 81.8 | 349 | 68.8 | 72 | 55.2 |
| CN(C)S(=O)(=O)c1ccc2c(c1)/C(=C/c1cc3c([nH]1)CCCC3)C(=O)N2 + COc1cc(N2CCC(N3CCN(C)CC3)CC2)ccc1Nc1ncc(Cl)c(Nc2ccccc2S(=O)(=O)C(C)C)n1 [NVP-TAE684] (first compound 0.4 µM, partner dose 0.08 µM) | 116 | 101 | 87.3 | 42.4 | 122 | 248 | 75.8 | 165 | 63.8 | 181 | 60.1 | 279 | 86.6 | 82.1 | 48.3 |

Single values from the results shown.
Entry of O=C(O)c1ccc(-c2c[nH]c3ncc(-c4ccccc4)cc23)cc1C1CCCC1 + c1cc(-c2cnn3cc(-c4ccc(OCCN5CCCCC5)cc4)cnc23)ccn1 [Dorsomorphin] (first compound 0.16 µM, partner dose 0.4 µM) under cleaved PARP positive nuclei fraction [1] [%]: 90.7
Entry of COc1ccc(-c2ccc3c(N4CCOCC4)nc(N4C[C@@H](C)O[C@@H](C)C4)nc3n2)cc1CO + O=C1NC(=O)/C(=C/c2ccc(-c3ccc(F)cc3O)o2)S1 [AS252424] (first compound 0.02 µM, partner dose 1 µM) under cleaved PARP positive nuclei fraction [13] [%]: 301

Reference: the supplement of paper PMC4604168 (melanoma cell lines)
